The results in this text go back to article PMC5050020, “The C9ORF72 GGGGCC expansion forms RNA G-quadruplex inclusions and sequesters hnRNP H to disrupt splicing in ALS brains”.

For at least one entry, the source does not settle the construct or the ends of the probe. Results from cells or extracts need not show a direct contact. Protein sequences can lack the tags named with them.

The data set concerns the target T1, hnRNP H (U87 nuclear extract, identified by anti-hnRNP H IP) (UniProt P31943).
T1 sequence (looked up): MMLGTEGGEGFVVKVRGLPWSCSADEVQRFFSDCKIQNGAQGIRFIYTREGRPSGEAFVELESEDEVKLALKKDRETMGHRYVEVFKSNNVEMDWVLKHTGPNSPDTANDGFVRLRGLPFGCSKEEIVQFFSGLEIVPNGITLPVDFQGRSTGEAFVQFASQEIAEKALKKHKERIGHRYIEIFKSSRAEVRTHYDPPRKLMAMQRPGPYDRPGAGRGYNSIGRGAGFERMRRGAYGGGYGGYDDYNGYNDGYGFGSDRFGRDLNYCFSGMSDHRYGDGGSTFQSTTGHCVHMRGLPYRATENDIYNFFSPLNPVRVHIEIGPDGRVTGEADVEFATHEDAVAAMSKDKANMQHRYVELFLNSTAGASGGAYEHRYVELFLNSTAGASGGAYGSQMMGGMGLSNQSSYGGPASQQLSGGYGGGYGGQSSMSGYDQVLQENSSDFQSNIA
Description: UV crosslinking + IP. As to conditions: RNase treated, UV crosslinking: ~1 nM RNA in U87 nuclear extract, protein in an extract, residues 1-449.

Turning to “GGGGCCGGGGCCGGGGCCGGGGCCGGGGCCGGGGCCGGGGCCGGGGCCGGGGCCGGGGCC [10R-7dG]”, the binding result (50 kDa species IPed, higher MW species not, all G replaced by 7-deaza-G (transcribed with 7-deaza-GTP), label: 32P-CTP) is on record as “binds”.

“GGGGCCGGGGCCGGGGCCGGGGCCGGGGCCGGGGCCGGGGCCGGGGCCGGGGCCGGGGCC [10R-G7dG]”: the binding result (7-deaza-G with trace 32P-G, label: 32P-GTP) is on record as “binds”.

Take “GGGGCCGGGGCCGGGGCCGGGGCCGGGGCCGGGGCCGGGGCCGGGGCCGGGGCCGGGGCC [10R-G]”: under “label: 32P-GTP”, the binding result is recorded as “binds”.
